Usually IC50 stands for the concentration needed to halve the response being measured.

The text below walks through data of patent US20250064758A1 (priority 2023, published 2025).

Each structure is given as a SMILES string. Read-outs that look alike come from different tables or passages of the source.

Assay [1] deals with HCoV-229E. Kind of assay: microbe, parasite or virus in culture. To be noted: Human coronavirus 229E, Huh-7, read-out: IC50 calculated by viral gene copies.
For assay [2], the system named is MERS-COV. Kind of assay: microbe, parasite or virus in culture. The conditions noted are these: Middle East respiratory syndrome-related coronavirus, VeroE6/TMPRSS2, read-out: IC50 calculated by viral gene copies.
For assay [3], the system named is HCoV-229E. To be noted: read-out: IC50 calculated by viral gene copies.
The subject of assay [4] is SARS-COV. Kind of assay: microbe, parasite or virus in culture. To be noted: Severe acute respiratory syndrome coronavirus, VeroE6/TMPRSS2, read-out: IC50 calculated by viral gene copies.

For `CC(C)NCC(O)COc1cccc2ccccc12` (stereo not shown) [Propranolol, 1-(isopropylamino)-3-(1-naphthyloxy)-2-propanol], the IC50 was 7.15 µM in assay [1], 17.7 µM in assay [2], 9.74 µM in assay [3] and 19.6 µM in assay [4].
